Data taken from doi:10.1101/2023.04.26.538363 (bioRxiv, 2023).
Substitutions are numbered along the chain they refer to. In names and notes the source's numbering stands. No constants are given. Whether binding was seen depends on the method and setting. Some entries that bind do so weakly or less than the wild type.

By UniProt entry, the sequences of proteins in these tests, tags left out. Where a name states a change or a piece, a line headed by the entry shows the natural chain unless it says otherwise.
UniProt P08659, whole entry: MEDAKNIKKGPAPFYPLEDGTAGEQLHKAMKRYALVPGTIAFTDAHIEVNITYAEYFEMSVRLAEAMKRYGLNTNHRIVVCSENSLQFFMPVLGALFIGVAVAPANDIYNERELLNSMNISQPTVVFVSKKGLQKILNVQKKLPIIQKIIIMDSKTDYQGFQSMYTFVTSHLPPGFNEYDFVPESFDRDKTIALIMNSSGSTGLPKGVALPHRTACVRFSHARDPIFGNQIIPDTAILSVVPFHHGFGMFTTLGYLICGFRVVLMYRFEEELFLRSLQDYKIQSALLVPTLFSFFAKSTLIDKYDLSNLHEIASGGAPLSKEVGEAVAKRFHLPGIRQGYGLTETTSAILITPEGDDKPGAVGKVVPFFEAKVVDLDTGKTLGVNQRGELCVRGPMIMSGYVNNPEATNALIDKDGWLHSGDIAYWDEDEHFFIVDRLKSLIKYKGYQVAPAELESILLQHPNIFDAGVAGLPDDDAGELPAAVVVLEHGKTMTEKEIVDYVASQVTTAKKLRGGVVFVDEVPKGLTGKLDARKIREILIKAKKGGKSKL

B1: Escherichia coli inclusion body-associated protein A, wild type (natural protein)
chain: MRNFDLSPLYRSAIGFDRLFNHLENNQSQSNGGYPPYNVELVDENHYRIAIAVAGFAESELEITAQDNLLVVKGAHADEQKERTYLYQGIAERNFERKFQLAENIHVRGANLVNGLLYIDLERVIPEAKKPRRIEIN
B2: Escherichia coli IbpA R93A mutant (natural protein)
chain: B1 chain with R93A

Assays:
Experiment in all cases: sucrose density gradient centrifugation
[1] = biological target: Cedecea neteri IbpA, wild type (Cedecea neteri)
[2] = biological target: firefly luciferase, heat-denatured (firefly) [luciferase: P08659]
[3] = biological target: Cedecea neteri IbpA R93A mutant (Cedecea neteri)

Row | Molecule | binding [1] | binding [2] | binding [3]
1 | Cedecea neteri IbpA, wild type (from UniProt A0A089Q2Q3 1-137) | binds | binds | 
2 | Cedecea neteri IbpA R93A mutant (from UniProt A0A089Q2Q3 1-137) |  | binds | binds
3 | B1 |  | binds | 
4 | B2 |  | binds | 
